About 610 (0.16%) of roughly 390,000 compounds were called active. This list was built around the results that the source calls inconclusive (neither active nor inactive); the mix of calls is not that of the screen. Calls follow the shape of the dose curve; as a rule, active = well fitted inhibition curve with a large enough effect; inconclusive = small, poorly fitted or top-dose-only effect, or effect the other way, or another doubt; inactive = no such curve, though single readings can be large or run the other way. A potency beside an inconclusive call is a rough fit, not a confirmed value.
Assay: Nrf2 qHTS screen for inhibitors: counterscreen for cytotoxicity
Conditions: A549 ARE-Fluc cells, CellTiter-Fluor viability, 18-24 h; activity change, negative = cytotoxicity: at 46 µM (top of the series)
Summary of the method: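 Cytotoxicity counterscreen: CellTiter-Fluor fluorescence was measured in A549 ARE_Fluc cells after 18-24 h of compound exposure in a concentration series. The subsequent BugLite luminescent read reports ARE-luciferase activity.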
% is scaled to controls: 0 for no effect and ±100 for the full control effect; potency is read from the fitted curve at half-maximal effect.

| Compound | Potency | activity change, negative = cytotoxicity |
| --- | --- | --- |
| COc1ccccc1N1CCN(C(=O)c2ccc(CN3CCOCC3)cc2)CC1 | inconclusive: 5.17 µM [activator, full curve] |  |
| O=C(NCc1ccc(Cl)cc1)C1CC(O)CN1S(=O)(=O)c1ccc(Cl)cc1 (stereo unspecified) | inconclusive: 7.31 µM [falling, partial curve, poor fit] |  |
| Cc1ccc2nc(N3CCN(C=O)CC3)nc(-c3ccccc3)c2c1 | inconclusive: 6.51 µM [activator, single point] |  |
| CCN(CC(=O)Nc1ccc(NC(C)=O)cc1)C(=O)c1ccc(COc2ccc(C(C)(C)C)cc2)cc1 | inconclusive: 29.1 µM [falling, partial curve, poor fit] |  |
| CN(C)S(=O)(=O)c1ccc(NC(=O)N2CCN(c3cccc(C(F)(F)F)c3)CC2)cc1 | inconclusive: 25.9 µM [falling, partial curve, poor fit] |  |
| COCCCn1[nH]c2c3c(ccc2c1=O)C(=O)c1ccccc1C3=O | inconclusive: 20.6 µM [falling, single point] |  |
| CC(Oc1ccc2c(c1)c1ccnc3c4ccccc4c(=O)n2c13)C(=O)NCCN1CCOCC1 (stereo unspecified) | inconclusive: 14.6 µM [falling, partial curve, poor fit] |  |
| COc1ccccc1CC(=O)Nc1ccc(S(=O)(=O)N(C)C2CCN(C)CC2)cc1 | inconclusive: 18.4 µM [activator, single point] |  |
| CN(C)c1cccc(C(=O)N(C)C2CCCN(Cc3ccccc3F)C2)c1 (stereo unspecified) | inconclusive: 32.6 µM [falling, partial curve, poor fit] |  |
| O=C(NC(=S)N(Cc1ccccc1)Cc1ccccc1)c1ccccc1F |  | inactive: -18.6% |
| CC(C)=CC1C(C(=O)Nc2ccc(S(=O)(=O)N3CCOCC3)cc2)C1(C)C (stereo unspecified) | inconclusive: 29.1 µM [falling, single point] |  |
| COc1cnc(-c2ccccn2)nc1Sc1ccccc1Cl | inconclusive: 11.6 µM [falling, single point] |  |
| Cc1cc(C)n(-c2nc3c(c(=O)[nH]c(=O)n3C)n2CC(O)COc2ccc(Cl)cc2Cl)n1 (stereo unspecified) | inconclusive: 2.91 µM [falling, full curve] |  |
| Cn1c(NC2=NC3(CCCC3)C3=C(CCCC3=O)N2)nc2ccccc21 |  | inactive: 4.74% |
| CC(C)CN(CC(C)C)C1=N/C(=C\c2ccco2)C(=O)N1c1ccccc1 | inconclusive: 25.9 µM [falling, single point] |  |
| Cc1[nH]nc(N=CC2=C(O)CC(C)(C)CC2=O)c1-c1ccccc1 | inconclusive: 14.6 µM [falling, partial curve, poor fit] |  |
| CC1=NN(c2ccccc2)C(=O)/C1=C/c1c(O)n(-c2ccc(F)c(Cl)c2)[nH]c1=O | inconclusive: 13 µM [falling, partial curve] |  |
| Cc1csc(SCC(=O)Nc2cc(S(=O)(=O)N3CCOCC3)ccc2N2CCOCC2)n1 | inconclusive: 29.1 µM [falling, single point] |  |
| Nc1ccc2c(c1)C(=O)N(c1ccc3ccccc3c1)C2=O | inconclusive: 32.6 µM [falling, partial curve, poor fit] |  |
| CSc1cccc(NC(=O)CN(Cc2ccc(Cl)cc2)S(C)(=O)=O)c1 |  | inactive: 4.75% |
| Cc1ccc(Cl)cc1N1CCN(C(=O)Cn2ncn3cccc3c2=O)CC1 | inconclusive: 23.1 µM [falling, partial curve, poor fit] |  |

| Compound | Potency | activity change, negative = cytotoxicity |
| --- | --- | --- |
| CN1CCN(Cc2c(O)ccc3cc(-c4ccc(Cl)cc4)c(=O)oc23)CC1 | inconclusive: 11.6 µM [activator, partial curve] |  |
| CSc1nc(SCC(=O)O)c2c3c(sc2n1)COC(C)(C)C3 | inconclusive: 25.9 µM [activator, single point] |  |
| Cc1[nH]n(-c2ccccc2)c(=O)c1N=Nc1ccccc1C(=O)N1CCOCC1 | inconclusive: 18.4 µM [falling, partial curve, poor fit] |  |
| Cc1ccc2nsnc2c1NC(=O)c1ccc(-c2cc(Cl)ccc2Cl)o1 | active: 9.2 µM |  |
| Cc1ccc2c(Cl)c(C(=O)NCC3CCCO3)sc2c1 (stereo unspecified) | inconclusive: 35.5 µM [activator, single point] |  |
| COc1ccc(C2CC(=O)c3c(O)cc(O)cc3O2)c(CC=C(C)C)c1OC (stereo unspecified) | inconclusive: 6.51 µM [activator, single point] |  |
| COc1ccccc1N1CCN(C(CNC(=O)C(=O)NCc2cccnc2)c2cccnc2)CC1 (stereo unspecified) | inconclusive: 18.4 µM [falling, single point] |  |
| O=C(NCCc1csc(-c2ccc(C(F)(F)F)cc2)n1)c1cccs1 |  | inactive: -1.69% |
| COc1ccccc1CNC(=O)c1c(N)n(CCCN2CCOCC2)c2nc3ccccc3nc12 | inconclusive: 16.4 µM [falling, single point] |  |
| O=C(c1ccc2c(=O)n3c(nc2c1)CCCCC3)N1CCN(c2ccc([N+](=O)[O-])cc2)CC1 | inconclusive: 16.4 µM [falling, single point] |  |
| Cc1ccn2c(Nc3ccc4c(c3)OCCO4)c(-c3ccccc3O)nc2c1 |  | inactive: 1.43% |
| O=S(=O)(c1ccccc1)c1nc(NCc2ccccc2)sc1Cl |  | inactive: -3.65% |
| Cc1cc(=O)[nH]c(SCC(=O)C23CC4CC(CC(C4)C2)C3)c1C#N | inconclusive: 29.1 µM [falling, single point] |  |
| CCOc1cccc(CC(=O)N2CCc3c([nH]c4ccc(OC)cc34)C2c2ccc(F)cc2)c1OCC (stereo unspecified) |  | inactive: -2.37% |
| Cc1ccc(CNC(=O)c2ccc(Nc3nc4ccccc4n4nnnc34)cc2)cc1 |  | inactive: 6.29% |
| CC(C)(C)OC(=O)C[C@@H]1C/C=C\C[C@@H](CC(=O)N[C@H](CO)Cc2ccccc2)C(=O)N2CCC[C@H]2COC1=O |  | inactive: -8.54% |
| O=C(NCc1cccnc1)c1ccccc1NS(=O)(=O)c1ccc(Br)cc1 |  | inactive: -1.19% |
| COc1ccc(-c2c(C)nn3c(N4CCCCCC4)cc(C)nc23)cc1OC | inconclusive: 25.9 µM [falling, partial curve, poor fit] |  |
| Cc1ccc(C2C3CSCC=C3C(C#N)=C(N)C2(C#N)C#N)cc1 (stereo unspecified) | inconclusive: 25.9 µM [falling, single point] |  |
| COC(=O)c1c(SCc2ccc(C#N)cc2)nc(=O)[nH]c1C |  | inactive: -1.86% |

A few values from the entries so far:
activity change, negative = cytotoxicity, `O=S(=O)(c1ccccc1)c1nc(NCc2ccccc2)sc1Cl` is entered as inactive: -3.65%
activity change, negative = cytotoxicity, `Cc1ccn2c(Nc3ccc4c(c3)OCCO4)c(-c3ccccc3O)nc2c1` is entered as inactive: 1.43%
Potency, `O=C(c1ccc2c(=O)n3c(nc2c1)CCCCC3)N1CCN(c2ccc([N+](=O)[O-])cc2)CC1` is entered as inconclusive: 16.4 µM [falling, single point]
